log2 fold change data for 35 targets are collected here from the supplement of paper PMC10849652.

Chains of the proteins cited; added tags and fusions are not shown. Lines headed by an entry give the natural chain unless they say otherwise; changes in a name come on top.
UniProt Q969M7: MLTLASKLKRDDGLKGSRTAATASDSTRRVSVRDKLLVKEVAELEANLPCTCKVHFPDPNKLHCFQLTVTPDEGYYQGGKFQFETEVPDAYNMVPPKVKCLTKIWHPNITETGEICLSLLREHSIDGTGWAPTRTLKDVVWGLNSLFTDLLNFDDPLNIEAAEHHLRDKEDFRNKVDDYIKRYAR
UniProt Q9NZ09: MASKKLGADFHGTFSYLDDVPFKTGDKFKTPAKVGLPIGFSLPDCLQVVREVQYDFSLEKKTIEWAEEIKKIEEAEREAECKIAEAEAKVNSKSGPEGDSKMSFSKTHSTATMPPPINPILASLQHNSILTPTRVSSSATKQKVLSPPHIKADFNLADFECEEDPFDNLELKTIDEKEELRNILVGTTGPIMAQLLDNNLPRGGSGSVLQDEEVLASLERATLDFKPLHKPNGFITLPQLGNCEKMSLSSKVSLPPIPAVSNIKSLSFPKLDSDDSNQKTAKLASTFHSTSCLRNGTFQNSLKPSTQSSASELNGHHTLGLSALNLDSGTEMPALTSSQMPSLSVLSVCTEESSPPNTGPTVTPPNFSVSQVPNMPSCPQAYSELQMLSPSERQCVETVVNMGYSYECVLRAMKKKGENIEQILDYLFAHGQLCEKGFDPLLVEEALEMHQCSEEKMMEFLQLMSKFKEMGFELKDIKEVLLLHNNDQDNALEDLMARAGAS
UniProt P60604: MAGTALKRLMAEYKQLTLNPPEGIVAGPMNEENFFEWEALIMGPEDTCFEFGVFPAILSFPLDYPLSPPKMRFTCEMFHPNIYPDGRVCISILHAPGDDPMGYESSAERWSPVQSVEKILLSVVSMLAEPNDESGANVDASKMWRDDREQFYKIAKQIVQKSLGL
UniProt Q8IWV7: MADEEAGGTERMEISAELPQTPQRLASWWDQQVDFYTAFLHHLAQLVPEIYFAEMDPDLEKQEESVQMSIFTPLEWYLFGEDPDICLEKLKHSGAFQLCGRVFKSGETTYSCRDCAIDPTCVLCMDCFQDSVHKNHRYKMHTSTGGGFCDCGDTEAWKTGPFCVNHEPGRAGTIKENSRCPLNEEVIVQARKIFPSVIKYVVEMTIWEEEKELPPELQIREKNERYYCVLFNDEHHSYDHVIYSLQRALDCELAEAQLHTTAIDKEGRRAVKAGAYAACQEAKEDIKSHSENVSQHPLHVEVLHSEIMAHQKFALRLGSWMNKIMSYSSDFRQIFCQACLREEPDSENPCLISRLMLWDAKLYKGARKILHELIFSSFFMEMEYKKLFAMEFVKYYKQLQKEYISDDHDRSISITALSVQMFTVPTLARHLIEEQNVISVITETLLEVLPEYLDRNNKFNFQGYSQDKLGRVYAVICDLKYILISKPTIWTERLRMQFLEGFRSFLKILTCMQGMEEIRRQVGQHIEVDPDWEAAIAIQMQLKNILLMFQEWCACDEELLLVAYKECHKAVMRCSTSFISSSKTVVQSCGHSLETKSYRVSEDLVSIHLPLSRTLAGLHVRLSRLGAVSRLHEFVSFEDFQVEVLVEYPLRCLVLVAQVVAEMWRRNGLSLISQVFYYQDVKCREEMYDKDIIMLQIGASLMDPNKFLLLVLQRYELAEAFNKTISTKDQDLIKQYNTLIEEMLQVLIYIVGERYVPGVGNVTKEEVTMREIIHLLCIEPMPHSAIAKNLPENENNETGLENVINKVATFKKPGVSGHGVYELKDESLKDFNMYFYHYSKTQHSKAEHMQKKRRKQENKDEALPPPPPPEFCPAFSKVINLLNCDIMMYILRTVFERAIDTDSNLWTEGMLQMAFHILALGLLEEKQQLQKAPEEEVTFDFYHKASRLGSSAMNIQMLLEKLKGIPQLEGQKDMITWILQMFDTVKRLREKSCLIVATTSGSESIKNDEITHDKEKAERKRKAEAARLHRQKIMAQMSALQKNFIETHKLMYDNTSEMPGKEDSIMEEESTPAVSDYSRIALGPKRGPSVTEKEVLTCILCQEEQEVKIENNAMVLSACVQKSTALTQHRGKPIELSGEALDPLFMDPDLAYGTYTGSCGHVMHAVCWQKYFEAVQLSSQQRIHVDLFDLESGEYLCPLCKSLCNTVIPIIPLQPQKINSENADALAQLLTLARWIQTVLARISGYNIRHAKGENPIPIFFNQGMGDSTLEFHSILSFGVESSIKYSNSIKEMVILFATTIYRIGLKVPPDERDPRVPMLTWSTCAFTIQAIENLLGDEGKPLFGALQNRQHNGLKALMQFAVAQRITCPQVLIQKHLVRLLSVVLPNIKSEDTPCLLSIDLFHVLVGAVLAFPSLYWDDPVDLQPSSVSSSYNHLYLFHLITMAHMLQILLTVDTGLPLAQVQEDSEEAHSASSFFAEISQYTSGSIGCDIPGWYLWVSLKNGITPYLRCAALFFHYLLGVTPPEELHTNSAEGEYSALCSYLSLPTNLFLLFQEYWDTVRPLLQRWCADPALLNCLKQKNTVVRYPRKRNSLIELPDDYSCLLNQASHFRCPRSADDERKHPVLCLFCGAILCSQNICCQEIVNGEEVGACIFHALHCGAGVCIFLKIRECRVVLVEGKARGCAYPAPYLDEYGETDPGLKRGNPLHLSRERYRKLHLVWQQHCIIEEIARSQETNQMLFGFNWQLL
UniProt Q9NUQ3: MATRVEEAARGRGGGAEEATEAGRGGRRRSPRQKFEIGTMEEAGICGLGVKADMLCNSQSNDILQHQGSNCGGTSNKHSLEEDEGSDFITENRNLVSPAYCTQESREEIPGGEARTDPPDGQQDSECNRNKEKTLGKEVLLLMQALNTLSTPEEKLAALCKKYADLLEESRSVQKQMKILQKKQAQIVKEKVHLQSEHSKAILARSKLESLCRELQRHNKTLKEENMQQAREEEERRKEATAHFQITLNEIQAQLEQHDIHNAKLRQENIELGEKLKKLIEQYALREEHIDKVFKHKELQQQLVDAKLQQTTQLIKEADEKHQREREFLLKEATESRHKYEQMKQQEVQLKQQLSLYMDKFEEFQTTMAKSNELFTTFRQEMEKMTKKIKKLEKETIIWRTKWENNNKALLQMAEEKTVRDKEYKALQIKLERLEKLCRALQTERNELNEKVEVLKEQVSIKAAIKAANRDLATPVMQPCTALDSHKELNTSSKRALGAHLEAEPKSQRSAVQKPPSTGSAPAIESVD
UniProt Q6IBS0: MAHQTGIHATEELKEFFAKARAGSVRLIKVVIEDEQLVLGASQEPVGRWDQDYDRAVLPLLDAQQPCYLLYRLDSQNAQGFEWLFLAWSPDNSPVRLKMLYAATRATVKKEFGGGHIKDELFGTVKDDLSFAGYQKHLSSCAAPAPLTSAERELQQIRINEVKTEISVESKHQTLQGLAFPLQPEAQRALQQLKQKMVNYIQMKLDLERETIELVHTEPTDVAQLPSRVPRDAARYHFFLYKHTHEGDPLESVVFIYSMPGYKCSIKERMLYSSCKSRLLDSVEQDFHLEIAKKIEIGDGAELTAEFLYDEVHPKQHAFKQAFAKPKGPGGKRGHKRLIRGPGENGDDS
UniProt O15042: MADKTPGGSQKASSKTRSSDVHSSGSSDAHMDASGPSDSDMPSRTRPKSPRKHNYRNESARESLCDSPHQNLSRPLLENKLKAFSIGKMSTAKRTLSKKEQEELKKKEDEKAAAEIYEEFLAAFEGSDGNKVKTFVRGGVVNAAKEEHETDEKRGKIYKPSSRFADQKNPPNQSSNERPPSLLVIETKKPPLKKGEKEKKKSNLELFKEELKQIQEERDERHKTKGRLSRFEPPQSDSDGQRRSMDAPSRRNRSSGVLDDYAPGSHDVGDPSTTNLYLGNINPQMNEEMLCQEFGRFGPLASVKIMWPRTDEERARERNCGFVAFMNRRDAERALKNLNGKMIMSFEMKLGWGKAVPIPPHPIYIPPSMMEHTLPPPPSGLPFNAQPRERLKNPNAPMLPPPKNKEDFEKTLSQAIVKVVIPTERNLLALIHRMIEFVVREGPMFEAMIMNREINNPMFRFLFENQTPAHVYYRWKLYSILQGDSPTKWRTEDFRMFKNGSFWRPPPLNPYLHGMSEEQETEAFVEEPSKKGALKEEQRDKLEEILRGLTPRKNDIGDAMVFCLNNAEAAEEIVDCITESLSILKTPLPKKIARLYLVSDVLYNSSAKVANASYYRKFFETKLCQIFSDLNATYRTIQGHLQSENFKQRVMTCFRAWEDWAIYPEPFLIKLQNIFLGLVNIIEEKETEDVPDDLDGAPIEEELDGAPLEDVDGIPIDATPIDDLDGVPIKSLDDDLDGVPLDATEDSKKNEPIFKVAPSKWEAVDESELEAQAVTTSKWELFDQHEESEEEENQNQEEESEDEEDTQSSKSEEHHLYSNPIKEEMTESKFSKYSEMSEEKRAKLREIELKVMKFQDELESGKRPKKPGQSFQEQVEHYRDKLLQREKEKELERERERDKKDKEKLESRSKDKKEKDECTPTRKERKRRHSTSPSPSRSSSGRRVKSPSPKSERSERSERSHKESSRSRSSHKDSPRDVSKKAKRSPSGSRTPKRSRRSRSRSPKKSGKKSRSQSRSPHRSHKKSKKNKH
UniProt Q8NBS9: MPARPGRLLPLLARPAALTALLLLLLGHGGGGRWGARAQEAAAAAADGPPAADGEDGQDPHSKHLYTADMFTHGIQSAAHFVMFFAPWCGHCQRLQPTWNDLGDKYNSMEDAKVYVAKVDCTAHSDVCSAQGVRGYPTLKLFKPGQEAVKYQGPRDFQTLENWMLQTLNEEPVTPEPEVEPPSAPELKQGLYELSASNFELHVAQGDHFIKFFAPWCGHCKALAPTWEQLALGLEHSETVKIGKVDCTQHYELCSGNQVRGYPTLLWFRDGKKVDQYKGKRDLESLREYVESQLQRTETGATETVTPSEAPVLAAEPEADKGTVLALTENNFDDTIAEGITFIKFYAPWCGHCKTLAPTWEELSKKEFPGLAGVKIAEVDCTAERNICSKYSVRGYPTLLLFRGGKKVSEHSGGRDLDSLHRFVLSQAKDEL
UniProt P61081: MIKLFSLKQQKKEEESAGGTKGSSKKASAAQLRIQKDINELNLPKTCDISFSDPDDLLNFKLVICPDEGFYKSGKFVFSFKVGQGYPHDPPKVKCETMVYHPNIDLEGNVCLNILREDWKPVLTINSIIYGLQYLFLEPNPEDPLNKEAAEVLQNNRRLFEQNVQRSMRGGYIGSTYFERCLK
UniProt P51668: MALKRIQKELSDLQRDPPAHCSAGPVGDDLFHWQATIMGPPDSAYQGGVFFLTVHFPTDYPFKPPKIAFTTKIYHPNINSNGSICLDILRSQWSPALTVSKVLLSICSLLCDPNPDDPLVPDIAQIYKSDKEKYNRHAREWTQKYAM
UniProt Q9GZX9: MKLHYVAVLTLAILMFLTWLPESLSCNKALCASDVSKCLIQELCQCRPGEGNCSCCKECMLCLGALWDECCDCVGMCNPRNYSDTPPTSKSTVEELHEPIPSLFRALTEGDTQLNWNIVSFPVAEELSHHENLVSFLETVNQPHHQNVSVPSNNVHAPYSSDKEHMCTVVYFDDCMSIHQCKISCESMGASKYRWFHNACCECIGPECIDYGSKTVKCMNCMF
UniProt Q3KQV9: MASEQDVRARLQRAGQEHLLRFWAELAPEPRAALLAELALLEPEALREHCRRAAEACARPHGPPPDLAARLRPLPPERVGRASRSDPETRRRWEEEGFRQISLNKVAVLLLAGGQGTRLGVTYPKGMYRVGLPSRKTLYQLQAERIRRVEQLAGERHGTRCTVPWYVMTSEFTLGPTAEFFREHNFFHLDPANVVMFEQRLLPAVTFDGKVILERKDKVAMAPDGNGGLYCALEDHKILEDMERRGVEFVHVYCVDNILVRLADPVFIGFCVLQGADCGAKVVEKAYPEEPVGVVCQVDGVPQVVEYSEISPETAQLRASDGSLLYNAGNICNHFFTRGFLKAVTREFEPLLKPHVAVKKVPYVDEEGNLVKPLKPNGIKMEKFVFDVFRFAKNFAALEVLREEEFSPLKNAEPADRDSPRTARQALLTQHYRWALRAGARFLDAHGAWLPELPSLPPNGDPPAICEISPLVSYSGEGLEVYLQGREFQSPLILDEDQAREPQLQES
UniProt Q9UJT1: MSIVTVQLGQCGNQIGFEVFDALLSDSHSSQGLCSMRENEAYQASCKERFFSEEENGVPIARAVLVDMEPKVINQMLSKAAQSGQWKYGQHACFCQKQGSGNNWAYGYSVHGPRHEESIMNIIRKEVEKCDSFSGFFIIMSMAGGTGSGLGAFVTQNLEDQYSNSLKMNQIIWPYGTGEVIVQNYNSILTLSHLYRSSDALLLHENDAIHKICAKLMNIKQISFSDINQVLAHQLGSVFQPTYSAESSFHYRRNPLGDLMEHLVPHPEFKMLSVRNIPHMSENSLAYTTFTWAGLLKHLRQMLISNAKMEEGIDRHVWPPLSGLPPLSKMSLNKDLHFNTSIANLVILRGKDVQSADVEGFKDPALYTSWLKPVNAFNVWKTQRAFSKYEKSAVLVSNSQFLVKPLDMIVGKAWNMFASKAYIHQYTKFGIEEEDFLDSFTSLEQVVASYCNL

The other results are listed elsewhere or left out.

Compound in the first experiment: COc1cc(Nc2ncc3c(n2)-c2ccc(Cl)cc2C(c2c(F)cccc2OC)=NC3)ccc1C(=O)O [alisertib]
The experiment can be described thus: log2 fold change, soluble protein after heating vs DMSO (PISA); higher = thermal stabilisation; K562 lysate, 10 uM; active = over 0.2 and 3.5 SD of the protein, either way, in both replicates (recomputed). Summed up:
(§1)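 Pellets of K562 cells were dounce-homogenised in PBS pH 7.4 with 1 mM MgCl2, and the crude extract was held at 1 mg/mL protein for a 30 min treatment with 10 μM compound. Aliquots were heated for 3 min over 48°C-58°C and pooled before NP-40 was added to 0.5% at 4°C. The supernatant from 21,000xg for 90 min was quantified by TMTpro 16plex LC-MS/MS with channel sums equalised. Values are reported from duplicates as log-two fold change in thermal stability relative to solvent controls.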
UCK1 isoform 4 (UniProt Q9HA47): the log2 fold change was inactive: -0.034.
On to TUBA3C (UniProt P0DPH7), for which the log2 fold change is inactive: -0.023.
Still for that read-out and setting: the same measure for UBE2Z (UniProt Q9H832): inactive: 0.026.
On the same count and under the same terms, the same measure for UBE2F isoform 2 (UniProt Q969M7): inactive: -0.071; for TUBAL3 (UniProt A6NHL2): inactive: 0.135; for UBXN4 (UniProt Q92575): inactive: -0.076.
The same measure, in the same setting: under UBE4A isoform 2 (UniProt Q14139) stands inactive: 0.018.
On to UBAP1 (UniProt Q9NZ09), for which the log2 fold change was inactive: 0.043.
The same measure, in the same setting: under UBE2G2 (UniProt P60604) stands inactive: 0.04.
Still for that read-out and setting: under UBR1 (UniProt Q8IWV7) stands inactive: 0.003; under TXLNG (UniProt Q9NUQ3), inactive: 0.019; under UBE3D (UniProt Q7Z6J8), inactive: 0.02.
Still for that read-out and setting: under TUT4 (UniProt Q5TAX3) stands inactive: 0.01.
TWF2 (UniProt Q6IBS0): the log2 fold change was inactive: -0.009.
For the target U2SURP (UniProt O15042), the log2 fold change is inactive: 0.
Same read-out and setting: under UBA2 (UniProt Q9UBT2) stands inactive: 0.005; under TXNDC5 (UniProt Q8NBS9), inactive: -0.001.
On the same count and under the same terms, under UBE2R2 (UniProt Q712K3) stands inactive: 0; under UBE2L3 isoform 3 (UniProt P68036), inactive: 0.026; under UBE3A (UniProt Q05086), inactive: -0.004.
Regarding UBAP2L isoform 5 (UniProt Q14157), the log2 fold change is inactive: 0.027.
The same measure, in the same setting: the same measure for TUBGCP3 (UniProt Q96CW5): inactive: 0.044; for TUBA1B (UniProt P68363): inactive: 0.026.
On the same count and under the same terms, under TUBA1C (UniProt Q9BQE3) stands inactive: -0.012; under UBE2M (UniProt P61081), inactive: 0.023.
Regarding TYMS (UniProt P04818), the log2 fold change is inactive: 0.021.
The same measure, in the same setting: the same measure for UBE2D1 (UniProt P51668): inactive: 0.028; for UBQLN4 (UniProt Q9NRR5): inactive: -0.03; for TWSG1 (UniProt Q9GZX9): inactive: 0.071.
Still for that read-out and setting: under UBA1 (UniProt P22314) stands inactive: 0.001.
Still for that read-out and setting: the same measure for UBR5 (UniProt O95071): inactive: -0.028; for UAP1L1 (UniProt Q3KQV9): inactive: 0.022; for UBP1 (UniProt Q9NZI7): inactive: 0.059.
UBE2NL (UniProt Q5JXB2): the log2 fold change is inactive: 0.006.
On to TUBD1 (UniProt Q9UJT1), for which the log2 fold change is inactive: 0.011.

Compound in another experiment: COc1cc2nc(-c3cc(F)ccc3O)nc(N[C@@H]3CNC[C@H]3C(C)(C)O)c2cc1OC
Described as above. The essentials:
as §1
As for UCK1 isoform 4 (UniProt Q9HA47), the log2 fold change was inactive: -0.04.
Still for that read-out and setting: under TUBA3C (UniProt P0DPH7) stands inactive: -0.035; under UBE2Z (UniProt Q9H832), inactive: 0.021.
UBE2F isoform 2 (UniProt Q969M7): the log2 fold change is inactive: 0.012.
On the same count and under the same terms, under TUBAL3 (UniProt A6NHL2) stands inactive: 0.088.
The same measure, in the same setting: under UBXN4 (UniProt Q92575) stands inactive: 0.05.
With UBE4A isoform 2 (UniProt Q14139), the log2 fold change is inactive: 0.013.
Still for that read-out and setting: under UBAP1 (UniProt Q9NZ09) stands inactive: -0.018; under UBE2G2 (UniProt P60604), inactive: 0.021; under UBR1 (UniProt Q8IWV7), inactive: -0.007.
Still for that read-out and setting: the same measure for TXLNG (UniProt Q9NUQ3): inactive: 0.005.
On to UBE3D (UniProt Q7Z6J8), for which the log2 fold change was inactive: -0.043.
As for TUT4 (UniProt Q5TAX3), the log2 fold change is inactive: -0.014.
As to TWF2 (UniProt Q6IBS0), the log2 fold change is inactive: 0.
On to U2SURP (UniProt O15042), for which the log2 fold change was inactive: -0.003.
Same read-out and setting: under UBA2 (UniProt Q9UBT2) stands inactive: -0.003; under TXNDC5 (UniProt Q8NBS9), inactive: 0; under UBE2R2 (UniProt Q712K3), inactive: -0.008.
Same read-out and setting: the same measure for UBE2L3 isoform 3 (UniProt P68036): inactive: 0.02.
As for UBE3A (UniProt Q05086), the log2 fold change is inactive: 0.011.
For the target UBAP2L isoform 5 (UniProt Q14157), the log2 fold change was inactive: 0.022.
For TUBGCP3 (UniProt Q96CW5), the log2 fold change is inactive: -0.017.
Still for that read-out and setting: the same measure for TUBA1B (UniProt P68363): inactive: -0.004.
Still for that read-out and setting: under TUBA1C (UniProt Q9BQE3) stands inactive: 0.001.
Regarding UBE2M (UniProt P61081), the log2 fold change was inactive: -0.005.
On the same count and under the same terms, the same measure for TYMS (UniProt P04818): inactive: 0.006; for UBE2D1 (UniProt P51668): inactive: -0.036.
On the same count and under the same terms, under UBQLN4 (UniProt Q9NRR5) stands inactive: -0.028; under TWSG1 (UniProt Q9GZX9), inactive: 0.085; under UBA1 (UniProt P22314), inactive: 0.002.
On the same count and under the same terms, the same measure for UBR5 (UniProt O95071): inactive: -0.005; for UAP1L1 (UniProt Q3KQV9): inactive: 0.069.
With UBP1 (UniProt Q9NZI7), the log2 fold change is inactive: -0.011.
Same read-out and setting: the same measure for UBE2NL (UniProt Q5JXB2): inactive: -0.03; for TUBD1 (UniProt Q9UJT1): inactive: -0.113.
